Measurements taken from PMC6061700 (Toxicological Sciences, 2018).

Assays:
[1] = system: human induced pluripotent stem cell-derived cardiomyocytes (hiPSC-CMs)
[2] = system: Cellular Dynamics International [CDI] human stem cell-derived cardiomyocytes

FPDc20: median [1]: 3 nM | FPDc20: span [1]: 1 log unit | effect on beating [2]: cessation of beating
SMILES: Cc1cccc(CCN2CCC(C(=O)c3ccc(NS(C)(=O)=O)cc3)CC2)n1 [E-4031]
